Source: publication PMC7819943, “Rice protein-binding microarrays: a tool to detect cis-acting elements near promoter regions in rice”
The other results are listed elsewhere or left out.

target: T1, OsSMF1 (Oryza sativa, UniProt Q6ZLB0 1-436); assay: protein-binding microarray (RPBM); PBS, 2% BSA, 51.3 ng/ul salmon testes DNA, 50 uM zinc acetate, 200 nM TF, 25 C, 1 h; high values mean tight binding; details: protein: recombinant; tags: N-terminal polyhistidine and DsRed monomer fusion (pET32a); chain copies: 2; label: CyDye5-dUTP incorporated in the synthesized complementary strand; 3' TTTTT single-stranded linker to array surface; dsDNA, one strand shown
T1 sequence: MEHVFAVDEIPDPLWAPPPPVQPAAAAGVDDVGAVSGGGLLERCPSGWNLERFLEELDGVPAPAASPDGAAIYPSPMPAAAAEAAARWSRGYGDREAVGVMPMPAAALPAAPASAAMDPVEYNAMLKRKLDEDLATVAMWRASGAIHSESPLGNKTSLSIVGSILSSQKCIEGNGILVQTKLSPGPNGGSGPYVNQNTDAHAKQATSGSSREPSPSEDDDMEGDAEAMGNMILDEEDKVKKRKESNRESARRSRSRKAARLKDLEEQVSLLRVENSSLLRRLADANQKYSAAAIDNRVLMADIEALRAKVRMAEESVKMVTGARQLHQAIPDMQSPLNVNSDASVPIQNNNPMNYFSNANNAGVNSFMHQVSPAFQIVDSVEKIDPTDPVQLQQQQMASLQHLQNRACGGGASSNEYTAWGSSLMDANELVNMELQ
Summary of the method: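 Using Ni–NTA, transcription factors fused N-terminally to polyhistidine and DsRed were purified after expression in E. coli BL21-CodonPlus. These were incubated at 200 nM with a blocked, double-stranded custom Agilent array for 1 h at 25 °C in a buffer containing 50 µM zinc acetate, and the array was washed. The binding signal is per-feature fluorescence intensity (arbitrary units) on an Axon 4000B scanner.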

| Sequence | binding signal |
| --- | --- |
| CGGATTGCCACGTTGTTCAAAACCGCTCTGAATTGGTTCGCGGAGTCACCTAGTGCAG | 6820 fluorescence intensity (a.u.) |
| CTTGTGTTCTTGATCCTGCAATTGCTGTCACACTAGCAAACGGAGTCACCTAGTGCAG | 16000 fluorescence intensity (a.u.) |
| CATGCCTCTCGTCACTACTCGTCAGTCGTCAGTAGCAAAGCGGAGTCACCTAGTGCAG | 4890 fluorescence intensity (a.u.) |
| CTGTTATCTTTCAATAAACCAAGGGAATTTTAGTTTGTTCCGGAGTCACCTAGTGCAG | 33200 fluorescence intensity (a.u.) |
| CACGCGGCGCTCCGCCTCGCCACGCGTATATGACCATATACGGAGTCACCTAGTGCAG | 4080 fluorescence intensity (a.u.) |
| CTGGTTGGCTGGTTCTTCAGGATTTGGATCTGTGGTCCTGCGGAGTCACCTAGTGCAG | 3280 fluorescence intensity (a.u.) |
| GAGGACGCCGACGAGGCGGCCCGCTGCGGCCACGTGGCGCCGGAGTCACCTAGTGCAG | 23400 fluorescence intensity (a.u.) |
| ATTAGTACCTGAACACCCCATGCGATACCGTATATAATACCGGAGTCACCTAGTGCAG | 5040 fluorescence intensity (a.u.) |
| CATAATTGTTTTCTGAGTAAATTTCACAAACTGCAATTGTCGGAGTCACCTAGTGCAG | 20800 fluorescence intensity (a.u.) |
| CACCACGCGTTCACACGGCCACGTCAGCCTACTACGCCTGCGGAGTCACCTAGTGCAG | 23700 fluorescence intensity (a.u.) |
| CTCTTATCAGGTGATGATTGTGGACTATAAACTGACCTACCGGAGTCACCTAGTGCAG | 3900 fluorescence intensity (a.u.) |
| GCGCTGGGAGTAGGAGCGCCGCCTGCATCTCGCTGATTGTCGGAGTCACCTAGTGCAG | 3400 fluorescence intensity (a.u.) |
| GATTCCCAAAGCTAGGTGGGCCCCACCTGTCAGGGTCACGCGGAGTCACCTAGTGCAG | 3600 fluorescence intensity (a.u.) |
| CTCCCCACTCACTGCCAGGTGGGCCCACCTTGTCGGATTACGGAGTCACCTAGTGCAG | 3530 fluorescence intensity (a.u.) |
| TCAAGAATTTGTGTTGGAAACTGATGCCTATGACAGGGGTCGGAGTCACCTAGTGCAG | 3440 fluorescence intensity (a.u.) |
| GGAGATGATGATTTACCTGTGATCTGTTTGGTCCTTGAGCCGGAGTCACCTAGTGCAG | 3360 fluorescence intensity (a.u.) |
| AAGGGAAATAAGCTGATCTGGAAAGAAAAGAGAACATCAGCGGAGTCACCTAGTGCAG | 4300 fluorescence intensity (a.u.) |
| AGGAACGCGCGGATCGATGACGTGGCGCTGATCCTGCCTACGGAGTCACCTAGTGCAG | 11600 fluorescence intensity (a.u.) |
| TAAAATAGTTTTAAAACTTTAAGTTGAAAGTAAATACTTTCGGAGTCACCTAGTGCAG | 27900 fluorescence intensity (a.u.) |
| GAACTGCTCGTCACGTAATCAAATCGTGTCCCATCACTTGCGGAGTCACCTAGTGCAG | 5350 fluorescence intensity (a.u.) |
| CAACTACCGACCTCACTTCCACGCCCACCGTCGTCGACTCCGGAGTCACCTAGTGCAG | 4630 fluorescence intensity (a.u.) |

An excerpt of these results, with bars between the fields.
Sequence | binding signal
CACCACGCGTTCACACGGCCACGTCAGCCTACTACGCCTGCGGAGTCACCTAGTGCAG | 23700 fluorescence intensity (a.u.)
CTCTTATCAGGTGATGATTGTGGACTATAAACTGACCTACCGGAGTCACCTAGTGCAG | 3900 fluorescence intensity (a.u.)

Carrying on:

| Sequence | binding signal |
| --- | --- |
| TTTGTGTCACTTTTAAACATGTTCACGTCATTATTTTAGTCGGAGTCACCTAGTGCAG | 5860 fluorescence intensity (a.u.) |
| GCCTAGGCCCAAATTCAGGGCCCACCAGGCCCACGTGTCTCGGAGTCACCTAGTGCAG | 4670 fluorescence intensity (a.u.) |
| AGGGAAAGATTCTAACAAATAAAGAAAAGAACAATGCAGCCGGAGTCACCTAGTGCAG | 3260 fluorescence intensity (a.u.) |
| TTAGAAAACCTTCCGGGACTAATGACATGGCAATCTCACCCGGAGTCACCTAGTGCAG | 5090 fluorescence intensity (a.u.) |
| GGCTGCGCGGGTTTCAATAGCTGACAGTGTGTACGCTTCTCGGAGTCACCTAGTGCAG | 3920 fluorescence intensity (a.u.) |
| ACCGCATCCTAGGGGTAAACACGTCATTCTATCCCCACCCCGGAGTCACCTAGTGCAG | 18300 fluorescence intensity (a.u.) |
| GGTCGGCCAATGGGGACTCGCCACGTGTGCGCCTCGCCACCGGAGTCACCTAGTGCAG | 24200 fluorescence intensity (a.u.) |
| ACTACTTGAGAGGGACGTGAGTGCGTGACGGCGCCAATGCCGGAGTCACCTAGTGCAG | 4110 fluorescence intensity (a.u.) |
| CATTCTTTGTCCATTTATTGACGTGCATGACAACACACTCCGGAGTCACCTAGTGCAG | 3470 fluorescence intensity (a.u.) |
| AGAGTTTGGTCAAAGAAAAGGTAAGTTCCTCCATCCACGTCGGAGTCACCTAGTGCAG | 4060 fluorescence intensity (a.u.) |
| CCGTACTCATAAAGGAAGTCGTTTTGGACAGCATCACGGTCGGAGTCACCTAGTGCAG | 4170 fluorescence intensity (a.u.) |
| TGCCCGTGCCAGCCGTCCATTGGCGCGCGGGCGACGTGGCCGGAGTCACCTAGTGCAG | 3950 fluorescence intensity (a.u.) |
| GGTGACACACTTCTGATTGTGCACATATGTGGCATTCTGTCGGAGTCACCTAGTGCAG | 6000 fluorescence intensity (a.u.) |
| CTCATCAGCAACTTGTGACATAATCTGTGCATTGCGTCCACGGAGTCACCTAGTGCAG | 3970 fluorescence intensity (a.u.) |
| CAAACTGTACATGTTGGTGGCGTCGCGTCATGTCACCAAACGGAGTCACCTAGTGCAG | 4020 fluorescence intensity (a.u.) |
| ATCGATGACGGATGACTCACACTGCTGACAAAAGAGCAGACGGAGTCACCTAGTGCAG | 7740 fluorescence intensity (a.u.) |
| CCGTGAGACGTGGACACGTGTCACACGTCTCTCTCTCTCTCGGAGTCACCTAGTGCAG | 22000 fluorescence intensity (a.u.) |
| GCGCCAGTTGACATGGCGCTGAGGTGTCTAAATTCAGCGCCGGAGTCACCTAGTGCAG | 10700 fluorescence intensity (a.u.) |
| CGCCACTCGCCTCGCCACGACGATGTCCCGTGGCAGGTGCCGGAGTCACCTAGTGCAG | 4710 fluorescence intensity (a.u.) |
| GCCTACTTGGTAAGGTAATAAAACCATCACACTAGTCGTACGGAGTCACCTAGTGCAG | 5990 fluorescence intensity (a.u.) |
| GGAGAGAGAGGAGGAAGAAGAGGCGAGGATGACAAGTGGGCGGAGTCACCTAGTGCAG | 3370 fluorescence intensity (a.u.) |

Single entries from the list.
In binding signal, AGAGTTTGGTCAAAGAAAAGGTAAGTTCCTCCATCCACGTCGGAGTCACCTAGTGCAG has the entry 4060 fluorescence intensity (a.u.)
In binding signal, CATTCTTTGTCCATTTATTGACGTGCATGACAACACACTCCGGAGTCACCTAGTGCAG has the entry 3470 fluorescence intensity (a.u.)
